Results are given in words; binding and its absence hold for the method and conditions named. Some binding calls cover weakened binding; strength is not graded here. Sequences can lack the tags named with a protein. One block for each binder: values may come before it.
Assays:
[1] = target: T1, YjeF-N-GST fragment of Edc3 (S. cerevisiae) (UniProt P39998); test: pull-down; GST-tagged Edc3 fragments immobilised on glutathione sepharose beads, purified Sbp1 added; 200 pmol of each protein; 4 °C, 2 h; 50 mM HEPES pH 7, 100 mM NaCl, 1 mM DTT, 2 mM MnCl2, 2 mM MgCl2, 1% Triton-X100, 10% glycerol, 0.25 mg/mL RNase A, 10 mg/mL BSA; western blot; both purified
T1 sequence: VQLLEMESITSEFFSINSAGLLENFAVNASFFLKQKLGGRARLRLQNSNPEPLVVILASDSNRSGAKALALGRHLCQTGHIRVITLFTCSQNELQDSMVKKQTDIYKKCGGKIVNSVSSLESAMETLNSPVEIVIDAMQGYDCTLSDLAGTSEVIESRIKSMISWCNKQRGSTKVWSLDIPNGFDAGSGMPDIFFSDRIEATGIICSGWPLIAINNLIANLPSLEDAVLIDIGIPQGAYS

[2] = target: T1, YjeF-N-GST fragment of Edc3 (S. cerevisiae); test: pull-down; eluted YjeF-N-GST, Edc3-mCherry and with or without His-Sbp1-FLAG incubated with glutathione sepharose beads; 100 pmol of each protein; 1X protein-protein interaction buffer, 4 °C, 2 h; western blot; both purified

binding [1]: binds
B1: His-Sbp1-FLAG (natural protein, S. cerevisiae, UniProt P10080 1-294, looked up)
chain: MSAEIEEATNAVNNLSINDSEQQPRAPTHKTVIDPEDTIFIGNVAHECTEDDLKQLFVEEFGDEVSVEIPIKEHTDGHIPASKHALVKFPTKIDFDNIKENYDTKVVKDREIHIKRARTPGQMQRGGFRGRGGFRGRGGFRGGFRGGYRGGFRGRGNFRGRGGARGGFNGQKREKIPLDQMERSKDTLYINNVPFKATKEEVAEFFGTDADSISLPMRKMRDQHTGRIFTSDSANRGMAFVTFSGENVDIEAKAEEFKGKVFGDRELTVDVAVIRPENDEEEIEQETGSEEKQE
notes: Sbp1, RGG-motif containing translation repressor of S. cerevisiae; wild type; also called wild-type Sbp1; purified Sbp1; source: E. coli BL21, purified (Ni-NTA agarose, batch; RNase A added during purification); not shown: His, N-terminal, kept; FLAG, C-terminal, kept

binding [2]: binds
B2: His-Edc3-mCherry (protein, UniProt P39998 1-551)
chain: MSQFVGFGVQVELKDGKLIQGKIAKATSKGLTLNDVQFGDGGKSQAFKVRASRLKDLKVLTVASQSGKRKQQRQQQQQNDYNQNRGEHIDWQDDDVSKIKQQEDFDFQRNLGMFNKKDVFAQLKQNDDILPENRLQGHNRKQTQLQQNNYQNDELVIPDAKKDSWNKISSRNEQSTHQSQPQQDAQDDLVLEDDEHEYDVDDIDDPKYLPITQSLNITHLIHSATNSPSINDKTKGTVINDKDQVLAKLGQMIISQSRSNSTSLPAANKQTTIRSKNTKQNIPMATPVQLLEMESITSEFFSINSAGLLENFAVNASFFLKQKLGGRARLRLQNSNPEPLVVILASDSNRSGAKALALGRHLCQTGHIRVITLFTCSQNELQDSMVKKQTDIYKKCGGKIVNSVSSLESAMETLNSPVEIVIDAMQGYDCTLSDLAGTSEVIESRIKSMISWCNKQRGSTKVWSLDIPNGFDAGSGMPDIFFSDRIEATGIICSGWPLIAINNLIANLPSLEDAVLIDIGIPQGAYSQRTSLRKFQNCDLFVTDGSLLLDL
